These are yes or no findings as the source states them, for the method shown. In cells and extracts the contact can be indirect. Some entries that bind do so weakly or less than the wild type. For part of these data: Where a sequence is shown, tags or fusion partners need not be part of it.
Tests used:
[1] = molecular target: HA-TβR Ⅱ (HA-tagged full-length human TGF-β type Ⅱ receptor), in HEK-293T (human) (UniProt P37173); test: co-IP; HEK-293T cells co-transfected with Flag-T4 and HA-TβR Ⅰ or HA-TβR Ⅱ; whole cell lysates precipitated with anti-HA magnetic beads, blotted with anti-Flag and anti-ppGalNAc-T4
[2] = molecular target: T1, HA-TβR Ⅰ (HA-tagged full-length human TGF-β type Ⅰ receptor), in HEK-293T (human) (UniProt P36897); test: as above
T1 sequence: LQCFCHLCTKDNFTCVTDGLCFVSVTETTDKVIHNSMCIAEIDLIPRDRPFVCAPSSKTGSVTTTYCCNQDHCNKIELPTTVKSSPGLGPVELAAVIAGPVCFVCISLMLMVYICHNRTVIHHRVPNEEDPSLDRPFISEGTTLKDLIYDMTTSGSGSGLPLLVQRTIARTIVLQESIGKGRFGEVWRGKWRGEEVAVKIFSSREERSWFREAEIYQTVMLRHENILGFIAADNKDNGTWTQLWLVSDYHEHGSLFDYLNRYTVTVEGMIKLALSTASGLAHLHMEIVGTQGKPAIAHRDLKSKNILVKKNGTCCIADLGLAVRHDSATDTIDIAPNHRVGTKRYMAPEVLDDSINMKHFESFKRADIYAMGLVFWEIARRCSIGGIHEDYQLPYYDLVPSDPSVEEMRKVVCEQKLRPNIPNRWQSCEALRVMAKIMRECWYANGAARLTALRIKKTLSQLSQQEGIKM

Chains of the proteins cited; added tags and fusions are not shown. Residues count along the entry.
UniProt P37173, residues 23-567: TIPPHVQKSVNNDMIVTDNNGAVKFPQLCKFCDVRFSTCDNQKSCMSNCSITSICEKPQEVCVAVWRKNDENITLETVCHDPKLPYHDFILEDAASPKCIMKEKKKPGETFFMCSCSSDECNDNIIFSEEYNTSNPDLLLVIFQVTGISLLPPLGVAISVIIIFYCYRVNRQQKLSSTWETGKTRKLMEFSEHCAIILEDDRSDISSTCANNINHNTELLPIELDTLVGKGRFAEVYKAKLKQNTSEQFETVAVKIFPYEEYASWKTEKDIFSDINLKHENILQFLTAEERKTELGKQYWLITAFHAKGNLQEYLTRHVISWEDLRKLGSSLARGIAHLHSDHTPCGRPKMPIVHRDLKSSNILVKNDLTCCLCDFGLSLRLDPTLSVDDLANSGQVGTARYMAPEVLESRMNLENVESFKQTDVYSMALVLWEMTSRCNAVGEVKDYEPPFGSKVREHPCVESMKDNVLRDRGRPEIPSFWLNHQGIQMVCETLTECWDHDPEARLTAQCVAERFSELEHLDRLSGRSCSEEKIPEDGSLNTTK
UniProt Q8N4A0: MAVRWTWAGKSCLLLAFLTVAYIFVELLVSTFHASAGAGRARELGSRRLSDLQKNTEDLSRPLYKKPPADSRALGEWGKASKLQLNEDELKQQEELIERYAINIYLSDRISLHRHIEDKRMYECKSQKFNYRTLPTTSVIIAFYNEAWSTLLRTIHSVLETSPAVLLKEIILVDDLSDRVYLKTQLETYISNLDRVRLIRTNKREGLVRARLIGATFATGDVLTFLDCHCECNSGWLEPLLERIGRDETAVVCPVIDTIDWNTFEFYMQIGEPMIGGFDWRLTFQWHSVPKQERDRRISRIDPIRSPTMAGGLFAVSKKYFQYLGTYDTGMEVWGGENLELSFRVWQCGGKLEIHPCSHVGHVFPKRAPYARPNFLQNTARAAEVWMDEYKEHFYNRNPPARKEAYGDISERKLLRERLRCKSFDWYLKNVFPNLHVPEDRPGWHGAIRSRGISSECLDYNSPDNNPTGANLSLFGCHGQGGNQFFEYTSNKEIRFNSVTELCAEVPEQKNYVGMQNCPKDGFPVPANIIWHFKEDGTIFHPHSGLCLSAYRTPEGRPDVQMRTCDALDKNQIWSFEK

[3] = molecular target: Flag-T4 (Flag-tagged full-length human ppGalNAc-T4) (human) (UniProt Q8N4A0); test: co-IP; HEK-293T cells co-transfected with Flag-T4 and HA-TβR Ⅰ or HA-TβR Ⅱ; whole cell lysates precipitated with anti-Flag magnetic beads, blotted with anti-HA

Substance | binding [1] | binding [2] | binding [3]
Flag-T4 (Flag-tagged full-length human ppGalNAc-T4) (from UniProt Q8N4A0 1-578) (enzyme) | binds | binds | 
HA-TβR Ⅱ (HA-tagged full-length human TGF-β type Ⅱ receptor), in HEK-293T (from UniProt P37173 23-567) |  |  | binds

Source: article PMC7948473
